The other results are listed elsewhere or left out.
What follows are compounds tested on T1, CTL2-GFP (C. trachomatis L2/434/Bu, GFP-expressing). Conditions: bulk GFP, single well; 28.5 h, 10 µM; inhibitor.
T1 construct: L2/434/Bu, GFP-expressing
Parameters: species or system HeLa; Intracellular C. trachomatis growth in HeLa cells, bulk GFP fluorescence relative to DMSO
In the case of `c1ccc2nc(N3CCCC3)c(Sc3nccs3)nc2c1` [CBK093794], the “% of control remaining” value is reported as 80.0935%. `CC(C)N(Cc1cccnc1)C(=O)Cn1c(C2CC2)nc2ccccc21` [CBK306156] was tested, and the “% of control remaining” value was 102.846%. `OCn1nc(-c2ccc(Cl)cc2Cl)oc1=S` [CBK288410] was tested, and the “% of control remaining” value was 99.1484%. For `CCCN1CCC(CNC(=O)Cn2ccc3ccc(F)cc32)CC1` [CBK282573], the “% of control remaining” value was 126.596%. For `c1coc(-c2ccc(Nc3ccc4c(c3)OCCO4)nc2)c1` [CBK037765], the “% of control remaining” value was 149.936%. In the case of `N#CCCN(CCc1ccccc1)S(=O)(=O)c1cccc2nsnc12` [CBK261138], the “% of control remaining” value is reported as 116%. In the case of `Cc1cc(NC(=O)COc2ccccc2)nc2c1c(=O)oc1ccccc12` [CBK287436], the “% of control remaining” value is reported as 100%. In the case of `CCCC(=O)c1ccc(S(=O)(=O)N2CCCN(Cc3c(-c4ccccc4)nc4sccn34)CC2)cc1` [CBK062912], the “% of control remaining” value is reported as 101.093%. For `Cc1ccc(CN(CC(=O)N2CCC(C(N)=O)CC2)S(=O)(=O)c2ccc(Br)cc2)cc1` [CBK265813], the “% of control remaining” value was 171.139%. For `O=C(CN1CCOCC1)Nc1ccc(S(=O)(=O)N2CCCC2)cc1` [CBK268468], the “% of control remaining” value was 121.768%. For `CC(=O)c1cc2c(cc1NC(=O)CSc1ccccn1)OCO2` [CBK266225], the “% of control remaining” value was 138.549%. With `COc1cccc(-c2nc(CC(=O)N3CCC(C(=O)O)CC3)cs2)c1` [CBK286797] the “% of control remaining” value was 128.046%. With `O=C(Nc1ccccc1-c1nc2ccccc2[nH]1)c1ccc(S(=O)(=O)N2CCCC2)cc1` [CBK263252] the “% of control remaining” value was 118.342%. In the case of `CCOC(=O)c1ccc(S(=O)(=O)N2CCCCC2)cc1` [CBK069738], the “% of control remaining” value is reported as 117.552%. For `Cc1ccccc1-c1cncc(C2CCN(C(=O)CCOc3ccccc3)CC2)n1` [CBK286154], the “% of control remaining” value was 132.649%. For `OCC1CCCN1c1cncc(-c2cccnc2)n1` (centres unmarked) [CBK065439], the “% of control remaining” value was 176.495%. With `O=C(Nc1ccc(Br)cc1)C1CC(O)CN1C(=O)OCc1ccccc1` (centres unmarked) [CBK263233] the “% of control remaining” value was 100.205%. In the case of `CCn1nc2c3ccccc3nc(C3CC3)n2c1=O` [CBK284008], the “% of control remaining” value is reported as 103.353%. With `Cc1[nH]c(=O)[nH]c(=S)c1C(=O)Nc1ccc(C(F)(F)F)cc1` [CBK115510] the “% of control remaining” value was 114.406%. `O=C1NC2=C(C(=O)N(CC3CCCO3)C2)C(c2ccc(F)c(F)c2)N1` (centres unmarked) [CBK282271] was tested, and the “% of control remaining” value was 150.511%. For `O=C(C[C@@H]1O[C@H](CNS(=O)(=O)c2ccc(Cl)cc2)[C@@H](O)[C@H]1O)N1CCCC1` [CBK288911], the “% of control remaining” value was 90.4814%. `O=C(CC1CCCCO1)Nc1cccc(Cn2ccnc2)c1` (centres unmarked) [CBK282204] was tested, and the “% of control remaining” value was 125.117%. In the case of `O=C(c1ccco1)N1CCN(S(=O)(=O)c2ccc3c(c2)C(=NO)c2cc(S(=O)(=O)N4CCN(C(=O)c5ccco5)CC4)ccc2-3)CC1` [CBK262103], the “% of control remaining” value is reported as 106.218%. With `Cn1c(=O)oc2cc(Br)ccc21` [CBK027375] the “% of control remaining” value was 134.499%. `COc1cc(OC)cc(C(=O)Nc2cccc(-c3nc4ccccc4o3)c2)c1` [CBK097706] was tested, and the “% of control remaining” value was 100%. With `COc1ccc(-c2noc(CN(C)C(=O)c3cccs3)n2)cc1` [CBK270286] the “% of control remaining” value was 127.125%. In the case of `O=C(Cn1cnc(NCc2cscn2)n1)N1CCCCCC1` [CBK304061], the “% of control remaining” value is reported as 86.7145%. With `Cc1nn(C)c2ncc(S(=O)(=O)Nc3ccc(F)cn3)cc12` [CBK305175] the “% of control remaining” value was 136.132%. In the case of `CC(Oc1ccc(Cl)cc1Cl)C(=O)N1CCN(Cc2ccc3c(c2)OCO3)CC1` (centres unmarked) [CBK074438], the “% of control remaining” value is reported as 115.068%. `O=C(CCCOc1ccccc1)Nc1cccnc1N1CCNCC1` [CBK028258T] was tested, and the “% of control remaining” value was 127.881%. For `Cc1nn(C)c(Oc2ccc3c(c2)CCCC3)c1[N+](=O)[O-]` [CBK000273], the “% of control remaining” value was 126.414%. With `CN(C)S(=O)(=O)c1ccc(C(=O)Nc2ccc3ncn(C)c(=O)c3c2)cc1` [CBK268450] the “% of control remaining” value was 93.6987%. For `OCc1ccc(-n2ncc(-c3ccc(F)cc3F)n2)cc1` [CBK112731], the “% of control remaining” value was 105.392%. `COc1ccc([N+](=O)[O-])cc1NC(=O)N[C@@H]1CC[C@@]2(c3ccc(OC)c(OC)c3)CCN(C)[C@H]2C1` [CBK036449T] was tested, and the “% of control remaining” value was 78.6816%. `Cc1nn(C)c(S(=O)(=O)N2CCOCC2c2cccc(F)c2)c1C(F)F` (centres unmarked) [CBK304729] was tested, and the “% of control remaining” value was 99.627%. With `COc1cccc(CC(=O)NCc2ccccc2OC2CCNC2)c1` (centres unmarked) [CBK024487T] the “% of control remaining” value was 108.296%. For `Cc1n[nH]c(O)c1C(c1ccc(OC(=O)c2ccccc2)cc1)c1c(C)n[nH]c1O` [CBK265019], the “% of control remaining” value was 105.688%. In the case of `O=c1sn(-c2ccccc2C(F)(F)F)c(=O)n1CC1CC1` [CBK113675], the “% of control remaining” value is reported as 134.789%. In the case of `O=C1CC(N(O)c2ccccc2)C(=O)N1c1ccc(F)cc1` (centres unmarked) [CBK288419], the “% of control remaining” value is reported as 102.329%. `O=C(NNC(=S)NCC1CCCO1)c1cccnc1` (centres unmarked) [CBK266842] was tested, and the “% of control remaining” value was 143.583%. `COc1ccc(N(C)C(=O)c2ccc(Cn3nc(NC(=O)Cc4ccc5c(c4)OCO5)c4ccccc43)cc2)cc1` [CBK059530] was tested, and the “% of control remaining” value was 122.202%. For `CCOc1ccc(Cc2nnnn2CC(=O)O)cc1` [CBK286677], the “% of control remaining” value was 147.518%. In the case of `COc1ccc(CCNCC2OCCCc3cc(OC)c(OC)cc32)cc1OC` (centres unmarked) [CBK012466C], the “% of control remaining” value is reported as 130.879%. In the case of `CCCC/C=C/c1cnc2[nH]c(=O)n([C@H](C)c3ccccc3)c2n1` [CBK064182], the “% of control remaining” value is reported as 125.645%. For `CC1CCC(C(N)=O)CN1C(=O)c1csc(COc2ccc(Cl)cc2)n1` (centres unmarked) [CBK304948], the “% of control remaining” value was 95.7425%. In the case of `O=C1NC2(CCC(=O)N(Cc3ccccc3)CC2)Nc2ccccc21` (centres unmarked) [CBK284439], the “% of control remaining” value is reported as 97.8371%. For `COc1ccc(C(=O)NNS(=O)(=O)N(C)C)cc1OC` [CBK267697], the “% of control remaining” value was 143.586%. With `COc1ccc(C(C)C)cc1S(=O)(=O)NCCc1c(C)[nH]c2c(Cl)cccc12` [CBK266983] the “% of control remaining” value was 109.687%. `COc1ccc(/C=C/C(C)=C\C(=O)O)c(OC)c1` [CBK262237N] was tested, and the “% of control remaining” value was 111.327%. `CS(=O)(=O)Nc1cccc(C2=NN(S(=O)(=O)c3ccc(Cl)cc3)C(c3ccccc3F)C2)c1` (centres unmarked) [CBK268762] was tested, and the “% of control remaining” value was 69.3194%. With `CC(=O)Nc1ccc(S(=O)(=O)N2CCN(Cc3ccc([N+](=O)[O-])cc3)CC2)cc1` [CBK264231G] the “% of control remaining” value was 131.484%. `COc1ccccc1CN(C)C(=O)CCc1ccc(S(N)(=O)=O)cc1` [CBK304585] was tested, and the “% of control remaining” value was 88.7758%. In the case of `COc1ccc(C2C(C(=O)c3ccc(Cl)cc3)=C(O)C(=O)N2CCN(C)C)cc1OC` (centres unmarked) [CBK264660], the “% of control remaining” value is reported as 131.489%. With `Clc1ccccc1-c1cn2ccnc2c(NCc2cccnc2)n1` [CBK038039] the “% of control remaining” value was 124.11%. `COc1ccc(S(=O)(=O)Nc2ccc(C)cc2)cc1C(=O)Nc1ccc(C)cc1` [CBK265172] was tested, and the “% of control remaining” value was 117.655%. `CCc1ccc(-c2csc(NC(=O)CN3C(=O)CCC3=O)n2)cc1` [CBK287347] was tested, and the “% of control remaining” value was 154.759%. In the case of `O=C(O)CC1CCN(c2ccc(C(F)(F)F)cn2)CC1` [CBK286850], the “% of control remaining” value is reported as 136.148%. With `CCN1CCC2(C/C=C/CNC(=O)c3ccccc3OCCN(C)C2=O)CC1` [CBK292061] the “% of control remaining” value was 139.361%. For `CCCCC(=O)N1CC(n2nc(-c3ccccc3)ccc2=O)C1` [CBK284615], the “% of control remaining” value was 190.878%. For `CC(=O)Nc1ccc(CN2C[C@@H]3OCC(=O)N(C)[C@@H]3C2)cc1` [CBK289240], the “% of control remaining” value was 123.464%. In the case of `O=C(NCCc1ccccc1)c1ncoc1-c1cccs1` [CBK283662], the “% of control remaining” value is reported as 101.91%. In the case of `CC(C)(C)NS(=O)(=O)c1cccc2nonc12` [CBK265569], the “% of control remaining” value is reported as 112.84%. For `CCc1cc2c(=O)c(-c3nc(C)cs3)c(CCC(=O)O)oc2cc1O` [CBK264838], the “% of control remaining” value was 124.014%. In the case of `CCc1csc(C(=Cc2ccc(OC)cc2)C(N)=O)n1` [CBK001010], the “% of control remaining” value is reported as 126.128%. In the case of `Brc1ccccc1OCCc1ccccc1` [CBK004519], the “% of control remaining” value is reported as 128.76%. `Cn1c(/N=C(\C=N\c2cc(=O)n(C)c(=O)n2C)c2ccccc2)cc(=O)n(C)c1=O` [CBK303237] was tested, and the “% of control remaining” value was 145.063%. With `C=CCSc1nnc(-c2ccccc2NC(=O)CC)c(O)n1` [CBK266411] the “% of control remaining” value was 84.6554%. For `CC1CCc2c(sc3ncnc(OCC(=O)N(C)CCC#N)c23)C1` (centres unmarked) [CBK304976], the “% of control remaining” value was 115.12%. In the case of `O=C(CS(=O)(=O)c1cc2c(N3CCNCC3)nccc2s1)c1ccc(N2CCCC2)cc1` [CBK042232C], the “% of control remaining” value is reported as 114.837%. `CC(=O)N1C[C@@H]2CCCCN(CCOc3ccccc3)[C@@H]2C1` [CBK285494] was tested, and the “% of control remaining” value was 105.186%. `COCCN(Cc1ccncc1)C(=O)c1cc(C(C)C)n2ncnc2n1` [CBK306983] was tested, and the “% of control remaining” value was 121.801%. In the case of `CC(=O)N1CCC(C(=O)NC(=O)NCc2ccc(F)cc2)CC1` [CBK034834], the “% of control remaining” value is reported as 122.185%. `COc1ccccc1NC(=O)CN1CCN(CCC(=O)c2ccc(C(C)C)cc2)CC1` [CBK023925C] was tested, and the “% of control remaining” value was 93.2933%. With `COc1ccc(F)c(CN(CC2CCNCC2)C(=O)Nc2ccccc2C(F)(F)F)c1` [CBK049805] the “% of control remaining” value was 99.9977%. With `CCOC(=O)C1=C(C)N(c2ccc(C(=O)O)cc2)C(=O)NC1c1ccc(OC(F)F)c(OC)c1` (centres unmarked) [CBK297878] the “% of control remaining” value was 127.929%. `CCOC(=O)c1sc2cccc(F)c2c1COC(=O)c1ccc(CNC(N)=O)cc1` [CBK297873] was tested, and the “% of control remaining” value was 138.219%. With `CCN1C(=O)C2(CC(=O)N(CCc3cccc(OC)c3)C2=O)c2cc(C)ccc21` (centres unmarked) [CBK075195] the “% of control remaining” value was 85.7854%.

Source: PMC12040169 (PLOS Biology, 2025)
